The name of at least one read-out is uncertain. For some assays here: At least one structure is not confirmed: it was looked up by name or label, or the drawing left a doubt.
Tests used:
[1] = molecular target: T1, mPRγ (Homo sapiens, UniProt Q9NXK6); test: FET3-lacZ reporter repression in yeast expressing mPRγ; type: cell-based
T1 construct: Full length and truncated mPRγ and mPRα were expressed in wild type cells grown in 2% galactose from the pGREG536 vector; expressed in transfected cells; host or cells: Saccharomyces cerevisiae (BY4742 wild type; also gpa mutants), GAL1-driven plasmids
T1 sequence (Q9NXK6 1-330): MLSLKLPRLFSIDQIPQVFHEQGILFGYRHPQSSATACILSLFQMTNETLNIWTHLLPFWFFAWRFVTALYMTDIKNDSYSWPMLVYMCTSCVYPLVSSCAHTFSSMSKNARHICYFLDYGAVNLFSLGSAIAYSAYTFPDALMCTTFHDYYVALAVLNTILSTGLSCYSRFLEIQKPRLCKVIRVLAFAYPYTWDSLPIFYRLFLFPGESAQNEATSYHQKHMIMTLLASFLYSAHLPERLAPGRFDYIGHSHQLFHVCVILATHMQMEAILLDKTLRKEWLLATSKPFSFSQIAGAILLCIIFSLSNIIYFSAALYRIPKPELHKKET
From the text: (§1) Plasmids and primers. Human PAQRs were cloned into various vectors by PCR from commercially/publically available cDNAs. PAQRs were cloned into the pYES260 (Melcher, 2000), pRS316 (Liu et al., 1992) or pGREG536 (Jansen et al., 2005) expression vectors using gap repair. The pJK90 plasmid containing a Dual Topology Reporter (DTR)-tagged OST4 gene driven by the constitutive TPI1 promoter was kindly provided by Dr. Gunnar von Heijne (Stockholm University) (Kim et al., 2003). The OST4 open reading frame in pJK90 was replaced with the PAQR6 and mPRα open reading frames by gap repair. Primers for all cloning reactions are listed herein. Proteins expressed in pYES260 have an N-terminal 6×-histidine tag followed by a TEV protease cleavage site. Proteins expressed in pGREG536 have an N-terminal 7×-HA tag. Proteins expressed in the pRS316 vector are untagged. The pYES260, pRS316 and pGREG536 vectors allow for galactose-inducible expression via the GAL1 promoter. […] The FET3-lacZ plasmid was previously described (Kupchak et al., 2007). […]
(§2) Assays and growth conditions. […] Cells were allowed to grow to mid-log phase at which time the activity of the FET3 gene was monitored using a FET3-lacZ promoter-reporter construct. lacZ activities are presented as a percentage of activity seen in untreated cells expressing the appropriate empty expression vector control. […]

[2] = molecular target: T2, mPRβ (Homo sapiens, UniProt Q8TEZ7); test: FET3-lacZ reporter repression in yeast expressing mPRβ; type: cell-based; details: logarithm of EC50 in pM; mPRβ row of Table 3; 0.05% galactose
T2 construct: expressed in transfected cells; host or cells: Saccharomyces cerevisiae BY4742, GAL1-driven pYES260 plasmid
T2 sequence (Q8TEZ7 1-354): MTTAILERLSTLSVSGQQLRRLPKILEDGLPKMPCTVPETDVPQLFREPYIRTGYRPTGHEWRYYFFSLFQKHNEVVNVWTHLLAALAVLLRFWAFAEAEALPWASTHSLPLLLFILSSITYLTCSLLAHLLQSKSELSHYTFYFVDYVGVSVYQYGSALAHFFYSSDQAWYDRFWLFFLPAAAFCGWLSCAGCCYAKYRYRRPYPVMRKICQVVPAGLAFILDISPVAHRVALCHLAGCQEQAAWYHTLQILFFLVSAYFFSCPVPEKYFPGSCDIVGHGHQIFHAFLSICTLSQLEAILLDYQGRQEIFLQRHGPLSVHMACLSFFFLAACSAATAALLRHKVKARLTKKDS
From the text: as §1, §2

[3] = molecular target: T3, PAQR6 (Homo sapiens, UniProt Q6TCH4); test: FET3-lacZ reporter repression in yeast expressing PAQR6; type: cell-based; details: logarithm of EC50 in pM; PAQR6 row of Table 3
T3 construct: expressed in transfected cells; host or cells: Saccharomyces cerevisiae BY4742, GAL1-driven pYES260 plasmid
T3 sequence (Q6TCH4 1-344): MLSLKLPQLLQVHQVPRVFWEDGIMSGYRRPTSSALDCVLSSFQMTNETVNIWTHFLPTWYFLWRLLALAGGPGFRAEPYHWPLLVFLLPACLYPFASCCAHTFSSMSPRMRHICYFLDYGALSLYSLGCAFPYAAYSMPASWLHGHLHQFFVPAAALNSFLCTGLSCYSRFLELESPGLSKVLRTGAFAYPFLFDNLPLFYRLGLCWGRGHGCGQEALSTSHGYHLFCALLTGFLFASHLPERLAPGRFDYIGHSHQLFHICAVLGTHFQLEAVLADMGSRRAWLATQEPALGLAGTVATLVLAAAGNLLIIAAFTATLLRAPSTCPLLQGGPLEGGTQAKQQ
From the text: as §1, §2

[4] = test system: AdipoR2; test: FET3-lacZ (pFET3-397) reporter repression in yeast expressing AdipoR2; type: cell-based, human; details: logarithm of EC50 in pM; AdipoR2 row of Table 3
From the text: IZH1-4 were cloned into pRS316-GAL1 via gap repair as previously described (Lyons et al., 2004). The triple hemaglutinin epitope (3×HA) tagged construct of the IZH2 gene was generated by replacing the ZRC1 promoter and open reading frame in the YCpZRC1-HA plasmid (MacDiarmid et al., 2002) with those of IZH2. This was accomplished by gap repair of Age I-digested YCpZRC1-HA to generate pIZH2-3×HA. This construct has the IZH2 gene driven by its native promoter and retains the ZRC1 terminator sequence. The native IZH2 promoter was then exchanged with the GAL1 promoter using gap repair of pIZH2-3×HA plasmids cut with EcoN I. AdipoR1 and AdipoR2 were amplified from cDNAs obtained from OpenBiosystems (Accession #: BC010743 and BC051858, respectively). PCR products were cloned into NcoI/BamHI digested pYES260 vector (Melcher, 2000) by gap repair allowing for GAL1-driven expression. Plasmids containing GAL1-driven the TAP (Tandem Affinity Purification) tagged NRG1 and NRG2 constructs were purchased from OpenBiosystems. […]
as §2

In the case of `CC#C[C@]1(O)CC[C@H]2[C@@H]3CCC4=CC(=O)CCC4=C3[C@@H](c3ccc(N(C)C)cc3)C[C@@]21C` [RU-486, Mifepristone], the “log EC50 nM” value ([1]; logarithm of EC50 in nM, mPRγ column of Table 4, ligand alone) is reported as 3.83 ± 0.23 nM.

In the case of `C[C@]12CC[C@@H]3c4ccc(O)cc4CC[C@H]3[C@@H]1CC[C@@H]2O` [estradiol, β-estradiol], the “increase of the EC50 of progesterone for mPRγ” value ([1]; in the presence of 10 μM of the named steroid) is reported as “had no effect”.

`CC(=O)[C@H]1CC[C@H]2[C@@H]3CCC4=CC(=O)CC[C@]4(C)[C@H]3CC[C@]12C` [Progesterone, progesterone] was tested, and the “log EC50 pM” value [2] was 3.21 ± 0.61 pM and the “log EC50 pM” value [3] was 3.42 ± 0.88 pM.

B1: Adiponectin: insulin-sensitizing hormone, agonist of the human adiponectin receptors AdipoR1 and AdipoR2 (protein, UniProt Q15848 19-244, looked up)
Adiponectin: ETTTQGPGVLLPLPKGACTGWMAGIPGHPGHNGAPGRDGRDGTPGEKGEKGDPGLIGPKGDIGETGVPGAEGPRGFPGIQGRKGEPGEGAYVYRSAFSVGLETYVTIPNMPIRFTKIFYNQQNHYDGSTGKFHCNIPGLYYFAYHITVYMKDVKVSLFKKDKAMLFTYDQYQENNVDQASGSVLLHLEVGDQVWLQVYGEGERNGLYADNDNDSTFTGFLLYHDTN
In the case of B1, the “log EC50 pM” value [4] is reported as 0.38 ± 0.17 pM.

Reference: patent publication US8809001B2, “High throughput assays for inhibitors and activators of PAQR receptors” (University of Florida Research Foundation, Inc., priority 2007, dated 2014)
